These are yes or no findings as the source states them, for the method shown. Some entries that bind do so weakly or less than the wild type.
Target: myc-GrB-EHITSN (UniProt Q15811)
Assay: overlay (far-western): EC lysates on nitrocellulose overlaid with PenNPF-FITC, detected with FITC Ab

Chains of the proteins cited; added tags and fusions are not shown. Residues count along the entry.
UniProt Q15811, residues 1-271: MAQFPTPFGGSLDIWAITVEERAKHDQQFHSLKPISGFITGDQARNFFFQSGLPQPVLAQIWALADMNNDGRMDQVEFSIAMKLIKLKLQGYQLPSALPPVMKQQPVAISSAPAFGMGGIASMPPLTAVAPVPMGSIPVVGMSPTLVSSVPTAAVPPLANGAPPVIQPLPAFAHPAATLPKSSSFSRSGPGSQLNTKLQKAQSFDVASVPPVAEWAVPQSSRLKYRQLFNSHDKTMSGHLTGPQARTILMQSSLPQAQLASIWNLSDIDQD

For RQIKIWFQNRRMKWKKPTGSSSTNPFL (FITC tag (where it is attached is not stated)) [PenNPF-FITC peptide], the binding was “binds”.
